Assay results taken from patent US8349792B2, “Combination comprising CNDAC (2′-cyano-2′-deoxy-N4-palmitoyl-1-beta-D-arabinofuranosyl-cytosine) and a cytotoxic agent” (priority 2006, dated 2013).

System: Hut78 cells
Assay: 72 h IC50 by Alamar blue assay in Hut78
Format: cell-based
Settings: read-out: 1×IC50 value in Hut78 cells
Experimental: Experiments were carried out in 96-well plates and the cell lines seeded at a density of 2500/well for H1299, 2500/well or 3000/well for H460, 5000/well for HL-60 cells, and 8,000 cells/well for Hut78, MV4-11 and PL-21 cells. In the solid tumour cell lines (H460 and H1299) 24 h treatment and 72 h treatment IC50 values were determined for each compound using the Alamar blue assay, whereas only 72 h IC50 values were obtained in the suspension cell lines (Hut78, MV4-11, HL60 and PL21). Each compound was then tested in combination with CNDAC using three different treatment regimes: concomitant, CNDAC pre-treatment followed by HDAC inhibitor/topoisomerase inhibitor and CNDAC treatment after pre-treatment with HDAC inhibitor/topoisomerase inhibitor. […]
After drug treatment, the cell number in each well was then estimated by incubating the cells for 1 h in medium containing 10% alamar blue (Roche, Lewes, East Sussex, U.K.) and reading the absorbance at 544-595 nm. Drug interactions were analysed using the commercial software package Calcusyn, which is based on the median effect model of Chou and Talalay (Chou, T. C. & Talalay, P. (1984) Adv. Enzyme Regul. 22, 27-55. Quantitative analysis of dose-effect relationships: the combined effects of multiple drugs or enzyme inhibitors). […]

## O=C(CCCCCCC(=O)Nc1ccccc1)NO [SAHA, suberoylanilide hydramic acid, reference compound]
  IC50: 0.46 µM
